The values that follow come from PMC5562816, “Rap1 and Cdc13 have complementary roles in preventing exonucleolytic degradation of telomere 5′ ends”.

The exact form of at least one protein or probe is not confirmed. No signal at the amounts used counts as a negative. At least one verdict rests on a figure or table, not on a statement of the authors.

The series relates to Cdc13 (Naumovozyma castellii). Briefly: EMSA. Conditions: 5'-phosphate on C-strand (DEPA substrate), EMSA: 10 fmol probe, 1.5 ug competitor mix (E. coli DNA, salmon sperm DNA, yeast tRNA), 1x lambda-exonuclease buffer (67 mM glycine-KOH pH 9.4), recombinant protein, label: 32P 3'-deoxy-ATP added to 3' end of C-strand.

On to “GTCACACGTCACACTCTGGGTGTCTGGGTGTCTGGGTGTC / ACCCAGAGTGTGACGTGTGAC [D7S19]”, for which the binding result is “binds”.

On to “GTCACACGTCACACTCTGGGTGTCTGGGTGTCTGGGTGTC / GACACCCAGAGTGTGACGTGTGAC [D10S16]”, for which the binding result (high affinity) is given as “binds”.

Take “GTCACACGTCACACTCTGGGTGTCTGGGTGTCTGGGTGTC / CCAGACACCCAGAGTGTGACGTGTGAC [D13S13]”: the binding result is recorded as “binds”.

With “GTCACACGTCACACTCTGGGTGTCTGGGTGACTGAGTGTC / CCAGACACCCAGAGTGTGACGTGTGAC [D13S13m]”, the binding result is reported as “no binding”.
